Among the data in article PMC4928075 are binding values, retold here.

The assay deals with Crumbs homolog 3 (CRB3) (rat (endogenous in adult rat testis and Sertoli cells)). The assay can be described thus: co-IP; about 800 ug adult rat testis lysate in IP lysis buffer (50 mM Tris pH 7.4, 0.15 M NaCl, 1% NP-40, 2 mM EGTA, 10% glycerol), pre-cleared with normal IgG; 2 ug precipitating antibody (against the partner proteins, Fig. 4A, or against CRB3, Fig. 4B) at room temperature overnight; Protein A/G PLUS agarose; immunoblot; normal rabbit or mouse IgG as negative control.

Results are given in words; binding and its absence hold for the method and conditions named. Binding seen in cells or lysates may run through a third protein. Binding calls can cover weak binding; strength is not graded here.

B1: PALS1 (protein associated with Lin-7 1, also known as Mpp5) (protein, UniProt B4F7E7 1-675)
chain: MTTSYMNGHVTEESDSGIKNLGLASPEEHPKHREMAVDCPGDLGTRLMPVRRSAQLERIRQQQEDMRRRREEEGKKQELDLNSSMRLKKLAQIPPKTGIDNPIFDTEEGIVLESPHYAVKILEVEDLFSSLKHIQHTLVDSQSQEDISLLLQLVQNRDFQNAFKIHNAVTVHMNKASPPFPLIANVQDLVQEVQTVLKPVHQKEGQELTALLNAPHIQALLLAHDKVAEQEMQLEPITDERVYESIGHYGGETVKIVRIEKARDIPLGATVRNEMDSVIISRIVKGGAAEKSGLLHEGDEVLEINGIEIRGKDVNEVFDLLSDMHGTLTFVLIPSQQIKPPPAKETVIHVKAHFDYDPSDDPYVPCRELGLSFQKGDILHVISQEDPNWWQAYREGDEDNQPLAGLVPGKSFQQQREAMKQTIEEDKEPEKSGKLWCAKKNKKKRKKVLYNANKNDDYDNEEILTYEEMSLYHQPANRKRPIILIGPQNCGQNELRQRLMNKEKDRFASAVPHTTRNRRDHEVAGRDYHFVSRQAFEADIAAGKFIEHGEFEKNLYGTSIDSVRQVINSGKICLLSLRAQSLKTLRNSDLKPYIIFIAPPSQERLRALLAKEGKNPKPEELREIIEKTREMEQNNGHYFDTAIVNSDLDKAYQELLRLINKLDTEPQWVPSTWLR
As to B1, the binding result was “binds”.
